Experimental data: patent publication US6337341B1 (priority 1996, dated 2002)
Some results were stated once for a whole list of compounds, not compound by compound.

What follows are compounds tested on rice blast fungus (Pyricularia oryzae). Conditions: paddy rice plants 5- to 6-leaved stage in pots; submerged application 200 g/10 ares active ingredient; inoculated by spraying spore suspension after a week; lesions counted after 1 day moist chamber and 6 days greenhouse.
Format: in vivo

SMILES	Effect (controlling degree, lesions on each leaf compared with untreated plot)
Cc1nnsc1C=NO [compound 19]	C or higher
Cc1nnsc1-c1nc(CC(N)=O)cs1 [compound 97]	C or higher
OCc1snnc1CCl [compound 365]	C or higher
CNC(=O)c1csc(-c2snnc2C)n1 [compound 95]	C or higher
Cc1nnsc1C(=NOCC#CBr)c1ccccc1 [compound 67]	C or higher
Cc1nnsc1C=NNc1ccccc1 [Compound No. 37]	A (100-95)
Cc1nnsc1C1=NCCN1 [compound 83]	C or higher
CCOC(=O)OCc1snnc1C [Compound No. 180, ethyl 4-methyl-1,2,3-thiadiazol-5-ylmethyl carbonate]	C or higher
Cc1nnsc1C(=NOCC#CCl)c1ccccc1 [compound 68]	C or higher
Cc1nnsc1-c1nc(-c2ccccc2)c(C)s1 [compound 94]	C or higher
COC(=O)/C=C\c1snnc1C [Compound No. 341, methyl (Z)-3-(4-methyl-1,2,3-thiadiazol-5-yl)-2-propenate]	C or higher
Cc1nnsc1CNC(=S)Nc1ccccc1 [compound 295]	C or higher
C=CCN(CC=C)Cc1snnc1C [Compound No. 222, 5-(N,N-diallylamino)methyl-4-methyl-1,2,3-thiadiazole]	A (100-95)
CCOC(=O)Cc1csc(-c2snnc2C)n1 [compound 98]	C or higher
Cc1ccc(-c2csc(-c3snnc3C)n2)cc1 [compound 93]	C or higher
Cc1nnsc1C=NN [compound 35]	C or higher
Cc1nnsc1C#N [Compound No. 18]	C or higher
Cc1nnsc1C(=O)c1cccn1C [compound 17]	C or higher
CCOC(=O)C(C#N)=Cc1snnc1C [Compound No. 346, ethyl 2-cyano-3-(4-methyl-1,2,3-thiadiazol-5-yl)-2-propenate]	C or higher
Cc1cc(C)nc(-c2snnc2C)n1 [compound 87]	C or higher
COC(=O)/C=C/c1snnc1C [Compound No. 338, methyl (E)-3-(4-methyl-1,2,3-thiadiazol-5-yl)-2-propenate]	C or higher
Cc1nnsc1-c1nnc(S)o1 [Compound No. 102, 5-(5-mercapto-1,3,4-oxadiazol-2-yl)-4-methyl-1,2,3-thiadiazole]	C or higher

SMILES	Effect (controlling degree, lesions on each leaf compared with untreated plot)
Cc1nnsc1-c1nc(C(C)(C)C)cs1 [compound 89]	A (100-95)
CON=C(c1ccccc1)c1snnc1C [compound 62]	C or higher
Cc1nnsc1C=NOCc1ccc(Cl)cc1 [compound 24]	C or higher
Cc1nnsc1CSc1ccccc1 [Compound No. 209, 4-methyl-5-phenylthiomethyl-1,2,3-thiadiazole]	C or higher
CNN=Cc1snnc1C [Compound No. 36]	C or higher
CCN(CC)Cc1snnc1C [compound 221]	A (100-95)
CCN(CC)C(=O)Cc1csc(-c2snnc2C)n1 [compound 100]	C or higher
Cc1cc(C)nc(NN=Cc2snnc2C)n1 [compound 60]	C or higher
CNC(=O)Cc1csc(-c2snnc2C)n1 [compound 99]	C or higher
Cc1nnsc1COC(=O)c1ccccc1 [compound 162]	C or higher
COCc1snnc1C [compound 106]	C or higher
Cc1csc(-c2snnc2C)n1 [compound 88]	A (100-95)
Cc1nnsc1CCl [Compound No. 104, 5-chloromethyl-4-methyl-1,2,3-thiadiazole]	A (100-95)
Cc1nnsc1C=NOCc1ccccc1 [Compound No. 21, O-benzyl-4-methyl-1,2,3-thiadiazole-5-carbaldehyde oxime]	C or higher
Cc1nnsc1CO [Compound No. 105, 4-methyl-1,2,3-thiadiazol-5-ylmethanol]	A (100-95)
Cc1nnsc1C1=NC(=O)C(C)(C(C)C)N1 (stereo not drawn) [compound 84]	C or higher
CNC(=O)Cc1csc(-c2snnc2-c2ccccc2)n1 [compound 376]	C or higher
C#CCON=C(c1ccccc1)c1snnc1C [compound 66]	C or higher
Cc1nnsc1CNC(=O)C(C)(C)C [compound 229]	C or higher
Cc1nnsc1-c1nc(CC(=O)O)cs1 [compound 96]	C or higher
Cc1nnsc1C(=NOCc1ccccc1)c1ccccc1 [compound 69]	C or higher

Same assay, conditions: paddy rice plants 5- to 6-leaved stage in pots; submerged application 200 g/10 ares active ingredient; inoculated by spraying spore suspension after a week; lesions counted after 1 day moist chamber and 6 days greenhouse; hydrochloride

SMILES	Effect (controlling degree, lesions on each leaf compared with untreated plot)
Cc1nnsc1CN.Cl [Compound No. 220, 5-aminomethyl-4-methyl-1,2,3-thiadiazole hydrochloride]	A (100-95)

Same assay, conditions: paddy rice plants 5- to 6-leaved stage in pots; submerged application 200 g/10 ares active ingredient; inoculated by spraying spore suspension after a week; lesions counted after 1 day moist chamber and 6 days greenhouse; listed as Compound 88

SMILES	Effect (controlling degree, lesions on each leaf compared with untreated plot)
Cc1csc(-c2snnc2C)n1 [compound 88]	C or higher

Same assay, conditions: paddy rice plants 5- to 6-leaved stage in pots; submerged application 200 g/10 ares active ingredient; inoculated by spraying spore suspension after a week; lesions counted after 1 day moist chamber and 6 days greenhouse; listed as Compound 89

SMILES	Effect (controlling degree, lesions on each leaf compared with untreated plot)
Cc1nnsc1-c1nc(C(C)(C)C)cs1 [compound 89]	C or higher

Same assay, conditions: paddy rice plants 5- to 6-leaved stage in pots; submerged application 200 g/10 ares active ingredient; inoculated by spraying spore suspension after a week; lesions counted after 1 day moist chamber and 6 days greenhouse; listed as Compound 104

SMILES	Effect (controlling degree, lesions on each leaf compared with untreated plot)
Cc1nnsc1CCl [Compound No. 104, 5-chloromethyl-4-methyl-1,2,3-thiadiazole]	C or higher

Same assay, conditions: paddy rice plants 5- to 6-leaved stage in pots; submerged application 200 g/10 ares active ingredient; inoculated by spraying spore suspension after a week; lesions counted after 1 day moist chamber and 6 days greenhouse; listed as Compound 105

SMILES	Effect (controlling degree, lesions on each leaf compared with untreated plot)
Cc1nnsc1CO [Compound No. 105, 4-methyl-1,2,3-thiadiazol-5-ylmethanol]	C or higher

Same assay, conditions: paddy rice plants 5- to 6-leaved stage in pots; submerged application 200 g/10 ares active ingredient; inoculated by spraying spore suspension after a week; lesions counted after 1 day moist chamber and 6 days greenhouse; listed as Compound 220, hydrochloride

SMILES	Effect (controlling degree, lesions on each leaf compared with untreated plot)
Cc1nnsc1CN.Cl [Compound No. 220, 5-aminomethyl-4-methyl-1,2,3-thiadiazole hydrochloride]	C or higher

Same assay, conditions: paddy rice plants 5- to 6-leaved stage in pots; submerged application 200 g/10 ares active ingredient; inoculated by spraying spore suspension after a week; lesions counted after 1 day moist chamber and 6 days greenhouse; listed as Compound 221

SMILES	Effect (controlling degree, lesions on each leaf compared with untreated plot)
CCN(CC)Cc1snnc1C [compound 221]	C or higher

Same assay, conditions: paddy rice plants 5- to 6-leaved stage in pots; submerged application 200 g/10 ares active ingredient; inoculated by spraying spore suspension after a week; lesions counted after 1 day moist chamber and 6 days greenhouse; listed as Compound 222

SMILES	Effect (controlling degree, lesions on each leaf compared with untreated plot)
C=CCN(CC=C)Cc1snnc1C [Compound No. 222, 5-(N,N-diallylamino)methyl-4-methyl-1,2,3-thiadiazole]	C or higher
